Laboratory results reported in publication PMC9308958.

The chains behind the UniProt entries cited, without tags or fusion partners. Residues count along the entry.
UniProt P08069, residues 31-1367: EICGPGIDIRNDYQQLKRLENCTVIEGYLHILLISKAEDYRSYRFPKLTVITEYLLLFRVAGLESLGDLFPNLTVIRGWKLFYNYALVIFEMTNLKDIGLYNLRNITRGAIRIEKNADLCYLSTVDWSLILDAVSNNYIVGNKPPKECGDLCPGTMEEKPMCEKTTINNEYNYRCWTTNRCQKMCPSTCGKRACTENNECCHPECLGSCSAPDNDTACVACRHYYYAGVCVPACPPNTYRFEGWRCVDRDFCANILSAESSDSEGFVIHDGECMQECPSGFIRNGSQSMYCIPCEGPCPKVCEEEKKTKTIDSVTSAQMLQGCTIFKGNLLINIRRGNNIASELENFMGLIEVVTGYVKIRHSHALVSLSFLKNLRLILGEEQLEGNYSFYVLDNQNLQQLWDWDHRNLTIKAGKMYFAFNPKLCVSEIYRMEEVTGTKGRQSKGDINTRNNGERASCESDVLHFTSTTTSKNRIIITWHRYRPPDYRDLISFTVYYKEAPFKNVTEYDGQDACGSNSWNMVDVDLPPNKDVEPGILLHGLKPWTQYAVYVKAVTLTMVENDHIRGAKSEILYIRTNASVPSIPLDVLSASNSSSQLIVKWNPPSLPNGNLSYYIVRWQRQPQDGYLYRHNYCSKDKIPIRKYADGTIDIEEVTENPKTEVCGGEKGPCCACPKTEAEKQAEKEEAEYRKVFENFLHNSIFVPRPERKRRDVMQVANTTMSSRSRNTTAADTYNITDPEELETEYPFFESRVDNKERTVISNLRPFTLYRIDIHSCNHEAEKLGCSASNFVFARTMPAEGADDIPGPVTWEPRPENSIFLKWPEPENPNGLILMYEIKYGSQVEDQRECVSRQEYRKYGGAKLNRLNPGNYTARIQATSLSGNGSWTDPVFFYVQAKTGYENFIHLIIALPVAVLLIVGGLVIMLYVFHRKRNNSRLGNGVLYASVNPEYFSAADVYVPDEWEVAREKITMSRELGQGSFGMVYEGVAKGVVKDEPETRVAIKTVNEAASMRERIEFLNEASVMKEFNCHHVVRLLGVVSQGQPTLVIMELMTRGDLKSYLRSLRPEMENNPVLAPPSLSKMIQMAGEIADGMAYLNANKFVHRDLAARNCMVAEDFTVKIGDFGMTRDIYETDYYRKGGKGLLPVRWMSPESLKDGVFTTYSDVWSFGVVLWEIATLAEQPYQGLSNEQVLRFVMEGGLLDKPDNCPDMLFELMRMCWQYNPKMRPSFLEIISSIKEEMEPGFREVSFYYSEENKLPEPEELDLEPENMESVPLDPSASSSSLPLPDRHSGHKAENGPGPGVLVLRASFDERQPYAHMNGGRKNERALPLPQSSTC
UniProt Q7Z739: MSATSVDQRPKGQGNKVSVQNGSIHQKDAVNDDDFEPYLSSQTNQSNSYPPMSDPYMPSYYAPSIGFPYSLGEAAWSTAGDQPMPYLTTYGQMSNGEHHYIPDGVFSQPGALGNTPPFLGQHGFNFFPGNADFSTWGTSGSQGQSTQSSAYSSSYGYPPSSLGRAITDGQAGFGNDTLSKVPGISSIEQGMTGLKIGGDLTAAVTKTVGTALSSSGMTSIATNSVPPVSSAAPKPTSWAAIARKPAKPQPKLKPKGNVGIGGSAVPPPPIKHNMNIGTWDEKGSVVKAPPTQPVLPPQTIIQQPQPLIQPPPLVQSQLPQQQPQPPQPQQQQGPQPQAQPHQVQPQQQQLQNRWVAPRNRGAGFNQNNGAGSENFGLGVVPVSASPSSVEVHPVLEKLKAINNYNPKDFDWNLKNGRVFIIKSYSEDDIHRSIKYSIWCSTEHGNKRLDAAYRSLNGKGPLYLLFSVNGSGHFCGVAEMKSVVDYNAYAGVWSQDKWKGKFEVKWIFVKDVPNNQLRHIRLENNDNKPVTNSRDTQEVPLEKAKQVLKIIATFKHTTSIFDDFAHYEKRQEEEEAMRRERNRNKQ
UniProt P05067, residues 18-770: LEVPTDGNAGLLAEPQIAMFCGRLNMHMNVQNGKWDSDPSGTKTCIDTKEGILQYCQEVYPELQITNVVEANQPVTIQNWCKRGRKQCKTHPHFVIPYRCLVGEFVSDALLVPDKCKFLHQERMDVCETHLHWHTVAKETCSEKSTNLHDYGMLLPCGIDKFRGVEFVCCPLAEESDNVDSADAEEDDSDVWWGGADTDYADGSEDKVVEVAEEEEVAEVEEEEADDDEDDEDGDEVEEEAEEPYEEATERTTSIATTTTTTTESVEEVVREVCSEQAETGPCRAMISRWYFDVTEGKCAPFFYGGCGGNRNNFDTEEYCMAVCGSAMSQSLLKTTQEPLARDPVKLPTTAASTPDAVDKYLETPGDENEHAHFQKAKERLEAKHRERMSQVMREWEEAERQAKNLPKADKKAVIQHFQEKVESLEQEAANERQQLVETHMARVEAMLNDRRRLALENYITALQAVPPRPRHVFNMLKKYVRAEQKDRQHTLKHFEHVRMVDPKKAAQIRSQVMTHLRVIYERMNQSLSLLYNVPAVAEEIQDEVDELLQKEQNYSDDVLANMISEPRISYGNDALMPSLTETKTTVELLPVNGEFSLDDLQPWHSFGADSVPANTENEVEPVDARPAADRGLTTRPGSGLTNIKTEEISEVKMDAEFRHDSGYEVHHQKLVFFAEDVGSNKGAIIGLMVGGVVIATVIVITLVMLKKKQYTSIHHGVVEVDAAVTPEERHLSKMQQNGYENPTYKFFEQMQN
UniProt Q9Y5G0, residues 31-923: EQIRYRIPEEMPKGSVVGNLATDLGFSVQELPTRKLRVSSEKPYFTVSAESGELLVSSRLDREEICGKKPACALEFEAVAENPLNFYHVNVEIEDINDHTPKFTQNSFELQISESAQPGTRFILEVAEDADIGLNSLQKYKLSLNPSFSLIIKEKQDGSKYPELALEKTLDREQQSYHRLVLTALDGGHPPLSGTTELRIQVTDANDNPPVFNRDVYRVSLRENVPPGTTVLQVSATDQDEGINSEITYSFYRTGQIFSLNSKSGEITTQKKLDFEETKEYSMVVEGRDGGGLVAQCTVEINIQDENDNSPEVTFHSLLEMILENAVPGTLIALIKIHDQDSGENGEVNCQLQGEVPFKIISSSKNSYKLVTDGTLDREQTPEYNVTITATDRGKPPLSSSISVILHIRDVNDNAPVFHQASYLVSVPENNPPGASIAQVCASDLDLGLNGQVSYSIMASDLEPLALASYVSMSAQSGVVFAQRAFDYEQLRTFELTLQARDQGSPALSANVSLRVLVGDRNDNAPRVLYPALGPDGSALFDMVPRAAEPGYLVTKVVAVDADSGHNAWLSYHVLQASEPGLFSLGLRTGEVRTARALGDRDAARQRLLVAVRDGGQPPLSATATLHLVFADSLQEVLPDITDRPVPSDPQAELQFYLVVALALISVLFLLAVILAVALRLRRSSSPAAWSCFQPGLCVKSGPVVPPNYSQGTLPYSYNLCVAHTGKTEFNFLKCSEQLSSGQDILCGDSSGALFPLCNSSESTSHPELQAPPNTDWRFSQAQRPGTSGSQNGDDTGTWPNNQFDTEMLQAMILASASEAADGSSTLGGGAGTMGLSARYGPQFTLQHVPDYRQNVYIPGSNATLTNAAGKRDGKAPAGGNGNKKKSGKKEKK

T1: A189V mutant follicle-stimulating hormone receptor, C-terminally MAC-tagged (human) (UniProt P23945)
T1 sequence: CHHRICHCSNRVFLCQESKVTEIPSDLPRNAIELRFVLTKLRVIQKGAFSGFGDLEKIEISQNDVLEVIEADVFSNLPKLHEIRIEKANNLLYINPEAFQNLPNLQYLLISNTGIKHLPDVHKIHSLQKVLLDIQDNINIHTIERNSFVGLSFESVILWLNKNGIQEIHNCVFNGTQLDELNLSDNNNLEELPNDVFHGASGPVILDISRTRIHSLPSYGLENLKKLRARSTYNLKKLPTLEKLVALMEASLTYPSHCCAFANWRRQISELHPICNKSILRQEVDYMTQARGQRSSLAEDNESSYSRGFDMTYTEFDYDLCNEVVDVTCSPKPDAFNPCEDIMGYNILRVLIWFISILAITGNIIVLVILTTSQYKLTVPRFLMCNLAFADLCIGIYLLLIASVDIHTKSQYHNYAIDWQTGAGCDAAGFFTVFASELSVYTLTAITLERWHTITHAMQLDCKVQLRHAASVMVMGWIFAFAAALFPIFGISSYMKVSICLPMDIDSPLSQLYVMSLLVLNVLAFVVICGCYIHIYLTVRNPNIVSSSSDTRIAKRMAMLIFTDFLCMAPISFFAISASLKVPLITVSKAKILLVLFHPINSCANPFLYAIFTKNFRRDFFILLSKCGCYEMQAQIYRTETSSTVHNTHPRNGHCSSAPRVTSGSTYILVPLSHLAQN

T2: wild-type follicle-stimulating hormone receptor, C-terminally MAC-tagged (human) (UniProt P23945)
T2 sequence: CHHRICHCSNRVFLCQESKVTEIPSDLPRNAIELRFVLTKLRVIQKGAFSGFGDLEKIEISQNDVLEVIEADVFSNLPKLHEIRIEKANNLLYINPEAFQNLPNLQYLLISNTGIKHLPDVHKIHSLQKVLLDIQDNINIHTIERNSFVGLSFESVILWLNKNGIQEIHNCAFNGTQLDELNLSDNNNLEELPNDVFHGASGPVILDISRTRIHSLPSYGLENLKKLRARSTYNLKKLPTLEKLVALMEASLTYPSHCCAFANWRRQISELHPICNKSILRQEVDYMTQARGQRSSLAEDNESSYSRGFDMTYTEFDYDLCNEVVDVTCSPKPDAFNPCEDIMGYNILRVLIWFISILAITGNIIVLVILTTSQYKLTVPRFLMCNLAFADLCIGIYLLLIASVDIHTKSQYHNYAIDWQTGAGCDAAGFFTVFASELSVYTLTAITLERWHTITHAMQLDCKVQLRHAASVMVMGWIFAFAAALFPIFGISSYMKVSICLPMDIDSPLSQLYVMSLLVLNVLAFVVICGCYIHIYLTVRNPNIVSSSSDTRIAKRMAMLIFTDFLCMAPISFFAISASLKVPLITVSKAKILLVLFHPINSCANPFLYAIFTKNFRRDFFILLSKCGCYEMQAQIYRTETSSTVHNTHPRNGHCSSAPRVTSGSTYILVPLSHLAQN


Columns and labels:
[1] = biological target: T1, A189V mutant follicle-stimulating hormone receptor, C-terminally MAC-tagged (human); assay: affinity purification with mass spectrometry; as a1, cells without FSH stimulation only (receptor at resting state)
[2] = biological target: T2, wild-type follicle-stimulating hormone receptor, C-terminally MAC-tagged (human); assay: as above
[3] = biological target: T1, A189V mutant follicle-stimulating hormone receptor, C-terminally MAC-tagged (human); assay: affinity purification with mass spectrometry; C-terminally MAC-tagged WT or A189V FSHR as bait from Flp-In 293 T-REx lysate (0.5% NP40, 150 mM NaCl, HEPES pH 8.0) on Strep-Tactin matrix, eluted with biotin; cells non-stimulated or stimulated 2 h at 37 C with 100 ng/ml FSH; high-confidence interactions by SAINT (Bayesian FDR < 0.01) against GFP controls and CRAPome
[4] = biological target: T2, wild-type follicle-stimulating hormone receptor, C-terminally MAC-tagged (human); assay: as above

Molecule | binding [1] | binding [2] | binding [3] | binding [4]
Insulin-like growth factor 1 receptor (from UniProt P08069 31-1367) | no binding (only without FSH stimulation) | no binding (only without FSH stimulation) | binds | binds
YTH domain-containing family protein 3 (from UniProt Q7Z739 1-585) |  |  | no binding | binds
amyloid precursor protein (from UniProt P05067 18-770) |  |  | binds | 
procadherin gamma-B5 (from UniProt Q9Y5G0 31-923) |  |  | binds | binds
stromal cell-derived factor 2 (protein, UniProt Q99470 19-211) SSLGVVTCGSVVKLLNTRHNVRLHSHDVRYGSGSGQQSVTGVTSVDDSNSYWRIRGKSATVCERGTPIKCGQPIRLTHVNTGRNLHSHHFTSPLSGNQEVSAFGEEGEGDYLDDWTVLCNGPYWVRDGEVRFKHSSTEVLLSVTGEQYGRPISGQKEVHGMAQPSQNNYWKAMEGIFMKPSELLKAEAHHAEL |  |  | binds | binds
TGF-beta receptor type-1 (receptor, UniProt P36897 34-503) LQCFCHLCTKDNFTCVTDGLCFVSVTETTDKVIHNSMCIAEIDLIPRDRPFVCAPSSKTGSVTTTYCCNQDHCNKIELPTTVKSSPGLGPVELAAVIAGPVCFVCISLMLMVYICHNRTVIHHRVPNEEDPSLDRPFISEGTTLKDLIYDMTTSGSGSGLPLLVQRTIARTIVLQESIGKGRFGEVWRGKWRGEEVAVKIFSSREERSWFREAEIYQTVMLRHENILGFIAADNKDNGTWTQLWLVSDYHEHGSLFDYLNRYTVTVEGMIKLALSTASGLAHLHMEIVGTQGKPAIAHRDLKSKNILVKKNGTCCIADLGLAVRHDSATDTIDIAPNHRVGTKRYMAPEVLDDSINMKHFESFKRADIYAMGLVFWEIARRCSIGGIHEDYQLPYYDLVPSDPSVEEMRKVVCEQKLRPNIPNRWQSCEALRVMAKIMRECWYANGAARLTALRIKKTLSQLSQQEGIKM |  |  | binds | 

Results are given in words; binding and its absence hold for the method and conditions named. Binding seen in cells or lysates may run through a third protein. These calls come from enrichment with a bait or labelling near it, and not all partners need be listed. For part of these data: No binding means not detected with the bait. Where a sequence is shown, tags or fusion partners need not be part of it.
